# Screening data

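Luminescence from an EWS-FLI1 target-promoter (NR0B1) reporter, set against a CMV-promoter reporter, two days after silencing single genes in TC32 Ewing sarcoma cells.
Each siRNA was applied at 20 nM.
A z-score of the log NR0B1-over-CMV signal, less the median of siRNAs with the same seed; more negative means a stronger specific loss of the NR0B1 reporter.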

This is part of the screen; most of the strongest results are not listed here.
Sequences are the guide (antisense) strand, without overhang.

strand	gene	seed-corrected z-score
UCGGGAGAGAAGGCUAUGC	WDR38	-0.594
UUAAUUCUUCUUUUCGUUC	HSFY1P1	1.188
UGAUGGACACGAGUUUUCC	FARP1	-0.1371
UCCAAUUCAAAUUCGCUUC	DEFB104A	-0.4763
UCUUUACCCAUUUGUAGCC	ALG5	-0.1441
UUGAAUAGCACAGGGAUGG	FAM171A2	1.791
UUGGAUCUGAUAUACGAGC	TOPAZ1	0.3116
UCUUCGAAUAAAUUCUUCC	SORBS1	0.1609
UGCAGUAGCAGAUCCUUUC	APBB1	0.2922
UUCGCUAUUAUUUGUGGUG	TRPA1	-0.1388
UAGAGAAACAUGACGGUGG	HOXA13	0.005836
UUUGAGCUUUGCAUGGUGC	CLEC4D	-0.3596
AUAUUGGAAAUAGGAAUGC	IFI44L	1.3
UAUAGUACAAGACAUUGAA	KRTAP17-1	-0.8496
UGAGCUAUGAGGUUUGCAC	COL19A1	1.237
UUGGAGUUGAGACCAAGCC	ATP6AP1L	-0.1934
UGAGCAGAGACACGAACCC	TUBA3FP	1.393
UUGUCGUCCAGAAUGCUUC	ZFP92	-0.2069
UGAGGUAAUACUGCAGCUC	ERGIC3	-0.6044
UAUAAUCUCAUACUCUGGG	PIH1D3	0.08048
UUUUGUUGAAACUGAACUU	RNF212	0.1999
UCAUUUACAUCCCUCACCG	CSPG4	0.2611
AUUGGUAGUAUACACGAGC	LPXN	0.5768
UAACUCGUCCCUUUCAAGC	SLC4A1AP	-0.5098
AGCCUGUUCACGGAGUUGC	LOC338667	-1.15
AAGGAAAUUAAUGAGAUUC	FAM210B	0.1446
UCCAGUUCAGAAGUCGAGU	TPD52L3	0.1954
UACGGUAAAGGCUUCGCUG	ITPRIP	-0.08706
UCUUCGGUCAUUAACACUG	EIF4G1	1.191
UAUUAUAAACACAAGUUCG	EDN2	0.5946
UCCUCCUACAGUUCCUCCC	SMG7-AS1	-0.5677
UUCAUGACUACGACUUCUG	RBM39	-0.03035
UGAAGGACACGAACAGGUG	SCTR	-0.2199
UCUUUCUCCUGCACGAUGC	GTSF1L	1.027
UCCGAUAUUUACAAAGAGC	NBL1	0.7478
UCACGCUCAAAAGCUCUUG	KRT73	-0.322
AGACAAGACAUGUACCUGC	SPRY2	0.1524
AUACUGGUAUCUUAAGGUC	DMAP1	0.1094
UGAAUUUGCACAGUGGGCA	RNF215	1.08
UUGCUAUAGCCCGUCGUUC	CTAGE15	-0.7214
AGAGUAAUCAUCAGGAGCC	FAM226B	-0.2816
UGUAUCCGCACUUUGAUGC	RAB15	-0.4366
UUUGUUGAAGUCGCGGUUC	MUM1	0.8817
UGUUGUAUAGAGAAGUGGG	OR5C1	-1.7
UGUCUUGAUGCUGAUUGCC	FAM221B	-1.333
UUAUGUUUGGAGAGGAUUG	ZNF253	-0.4646
UUCAUUCCCGCUAUUGUUG	CLEC4M	-0.1255
UAGUUGAUUAAGACUUGUC	PGR	-0.02196
UAAGUUUACAGCUUCAUUC	PAWR	0.355
UUAGAAGUCUGGCCGGUCC	NDUFA4L2	-0.07057
UCACAGAUAAGCCUAUGCC	TIGIT	-1.169
UUUCAUGUACUGAAGUCGG	IL34	0.2877
UUGGUUUCUAUAUGAAUGG	PITPNC1	-0.4025
UAUCUCGGCUUUUAGAGUG	RPL21P20	-1.16
UAUAGAGCCGAGCAAGUCC	CDK12	-1.42
UUUUGGUUGAGGAACUUAU	TMEM255A	1.163
AAUCAUUGAAGGAUUAAUC	TAF9B	0.7191
AGCCGAAGAACAGUGAGCG	RAD9A	-0.9169
AAAUUUCUUCUCAAGGUAC	ASIC2	-0.5643
AAAUGAUCCACGUUGAGCG	CAMTA2	-1.537
AGAGUCUAAGAUGUCAUCC	DENND2D	-0.01104
UGAUGGACUGAUCACAACC	ABHD14B	-0.7485
UCCGUGUACAGGAAGGAGG	PHYHD1	0.8124
UUCGGCAAAACUCUGCUGC	STIM1	-0.1544

Once more, the final 7:

{"strand": "AGCCGAAGAACAGUGAGCG", "gene": "RAD9A", "seed-corrected z-score": "-0.9169"}
{"strand": "AAAUUUCUUCUCAAGGUAC", "gene": "ASIC2", "seed-corrected z-score": "-0.5643"}
{"strand": "AAAUGAUCCACGUUGAGCG", "gene": "CAMTA2", "seed-corrected z-score": "-1.537"}
{"strand": "AGAGUCUAAGAUGUCAUCC", "gene": "DENND2D", "seed-corrected z-score": "-0.01104"}
{"strand": "UGAUGGACUGAUCACAACC", "gene": "ABHD14B", "seed-corrected z-score": "-0.7485"}
{"strand": "UCCGUGUACAGGAAGGAGG", "gene": "PHYHD1", "seed-corrected z-score": "0.8124"}
{"strand": "UUCGGCAAAACUCUGCUGC", "gene": "STIM1", "seed-corrected z-score": "-0.1544"}

The results are deposited in PubChem (AID1159506; NCATS, 2015).